{"source": "paper PMC11417211", "molecular_target": "T1, complement protein C2 (human) (UniProt P06681)", "T1 sequence": "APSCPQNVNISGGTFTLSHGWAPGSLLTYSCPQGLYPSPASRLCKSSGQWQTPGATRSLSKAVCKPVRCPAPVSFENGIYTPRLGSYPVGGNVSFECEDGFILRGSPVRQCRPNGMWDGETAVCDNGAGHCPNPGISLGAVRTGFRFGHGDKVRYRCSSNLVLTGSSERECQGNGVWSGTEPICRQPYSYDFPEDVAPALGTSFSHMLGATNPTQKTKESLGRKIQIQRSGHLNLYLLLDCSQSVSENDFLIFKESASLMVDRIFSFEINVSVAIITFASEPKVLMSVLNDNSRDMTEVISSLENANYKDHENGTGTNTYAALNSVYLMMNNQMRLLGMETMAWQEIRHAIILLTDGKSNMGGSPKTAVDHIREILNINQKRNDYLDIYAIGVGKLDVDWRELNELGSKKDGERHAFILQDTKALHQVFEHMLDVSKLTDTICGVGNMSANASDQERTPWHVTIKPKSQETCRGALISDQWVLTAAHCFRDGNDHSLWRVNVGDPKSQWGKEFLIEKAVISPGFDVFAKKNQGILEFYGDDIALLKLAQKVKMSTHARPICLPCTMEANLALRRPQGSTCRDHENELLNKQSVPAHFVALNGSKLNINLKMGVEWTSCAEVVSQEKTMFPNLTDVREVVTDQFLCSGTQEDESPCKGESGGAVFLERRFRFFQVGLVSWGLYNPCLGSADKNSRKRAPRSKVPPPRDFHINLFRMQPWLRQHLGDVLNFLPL", "assay": "ELISA; complement proteins coated at 0.2 μg/well in bicarbonate/carbonate buffer; eHAMpin-1 at 1.5 μM; detected with HRP-conjugated anti-His antibody; both purified", "note": "No constants are given. Whether binding was seen depends on the method and setting."}
{"substance": "E. coli expressed Hyalomma anatolicum serpin-1 (eHAMpin-1)", "values": [{"measurement": "binding", "value": "no binding (tested: 1.5 μM)"}]}
